Single values are uncertain, as repeats are few or missing.
Compound: [O-][N+](C(C1=C(C(O)=C2)NC(C(C=C3)=CC=C3Cl)C4C1C=CC4)=C2Cl)=O
Test: melting temperature shift (compound 7 minus DMSO); higher = compound stabilises the protein
Conditions: 10 µM
Experimental: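 Thermal proteome profiling (TMT mass spectrometry) in intact DAOY medulloblastoma cells or DAOY lysates treated with 10 µM compound 7 or DMSO, heated at 10 temperatures from 40.5 to 73.8 °C for 3 min. Melting curves were fitted with the Bioconductor TPP package, and the melting point difference between compound and vehicle is reported per protein (single curve per condition).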

Sequences of proteins named here, by UniProt entry; tags and fusion partners are left off. A change or cut given only in a name is not applied to a line headed by its entry.
UniProt P05412, whole entry: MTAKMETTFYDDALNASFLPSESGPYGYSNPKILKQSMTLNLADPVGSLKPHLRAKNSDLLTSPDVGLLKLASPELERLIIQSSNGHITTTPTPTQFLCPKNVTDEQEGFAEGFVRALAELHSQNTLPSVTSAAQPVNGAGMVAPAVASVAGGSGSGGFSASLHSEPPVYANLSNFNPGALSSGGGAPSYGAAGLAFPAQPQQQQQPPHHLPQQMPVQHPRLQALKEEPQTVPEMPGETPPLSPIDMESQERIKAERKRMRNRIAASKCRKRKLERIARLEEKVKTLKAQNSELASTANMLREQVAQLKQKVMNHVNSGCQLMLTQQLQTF
UniProt O15067: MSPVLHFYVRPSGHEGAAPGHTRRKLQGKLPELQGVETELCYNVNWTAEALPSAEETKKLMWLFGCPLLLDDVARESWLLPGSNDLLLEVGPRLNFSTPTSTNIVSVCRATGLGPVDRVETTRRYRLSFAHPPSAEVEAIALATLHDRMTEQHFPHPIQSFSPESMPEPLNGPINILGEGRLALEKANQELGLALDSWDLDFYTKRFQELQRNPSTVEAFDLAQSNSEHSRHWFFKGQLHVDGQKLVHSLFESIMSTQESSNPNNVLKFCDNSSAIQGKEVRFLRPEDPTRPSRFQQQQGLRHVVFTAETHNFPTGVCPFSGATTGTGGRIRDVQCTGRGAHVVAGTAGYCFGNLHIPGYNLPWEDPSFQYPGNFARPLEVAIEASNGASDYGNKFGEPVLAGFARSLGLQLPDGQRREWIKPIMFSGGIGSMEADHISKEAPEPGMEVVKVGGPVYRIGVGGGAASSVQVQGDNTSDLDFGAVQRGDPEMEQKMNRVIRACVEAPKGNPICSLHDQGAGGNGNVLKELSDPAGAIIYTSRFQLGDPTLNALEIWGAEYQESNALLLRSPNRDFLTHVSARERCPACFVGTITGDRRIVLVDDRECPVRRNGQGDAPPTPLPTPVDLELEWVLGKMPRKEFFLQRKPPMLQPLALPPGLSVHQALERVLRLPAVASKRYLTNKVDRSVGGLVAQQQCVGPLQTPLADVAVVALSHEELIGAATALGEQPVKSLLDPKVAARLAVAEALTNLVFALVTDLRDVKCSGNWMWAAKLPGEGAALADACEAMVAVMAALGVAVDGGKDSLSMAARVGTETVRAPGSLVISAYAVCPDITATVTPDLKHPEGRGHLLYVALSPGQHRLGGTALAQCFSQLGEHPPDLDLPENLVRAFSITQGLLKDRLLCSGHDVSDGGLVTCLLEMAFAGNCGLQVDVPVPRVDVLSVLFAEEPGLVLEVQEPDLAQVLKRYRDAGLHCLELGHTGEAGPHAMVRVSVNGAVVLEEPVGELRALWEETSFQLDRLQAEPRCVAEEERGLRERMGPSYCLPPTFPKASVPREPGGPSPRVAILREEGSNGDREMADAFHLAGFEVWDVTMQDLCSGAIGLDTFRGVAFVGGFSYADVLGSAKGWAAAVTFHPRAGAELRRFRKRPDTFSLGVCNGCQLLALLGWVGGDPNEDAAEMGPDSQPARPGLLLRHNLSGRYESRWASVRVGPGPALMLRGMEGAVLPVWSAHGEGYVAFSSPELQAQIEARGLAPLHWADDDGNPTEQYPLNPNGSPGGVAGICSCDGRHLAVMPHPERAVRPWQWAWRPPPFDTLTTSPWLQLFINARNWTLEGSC
UniProt Q12926, whole entry: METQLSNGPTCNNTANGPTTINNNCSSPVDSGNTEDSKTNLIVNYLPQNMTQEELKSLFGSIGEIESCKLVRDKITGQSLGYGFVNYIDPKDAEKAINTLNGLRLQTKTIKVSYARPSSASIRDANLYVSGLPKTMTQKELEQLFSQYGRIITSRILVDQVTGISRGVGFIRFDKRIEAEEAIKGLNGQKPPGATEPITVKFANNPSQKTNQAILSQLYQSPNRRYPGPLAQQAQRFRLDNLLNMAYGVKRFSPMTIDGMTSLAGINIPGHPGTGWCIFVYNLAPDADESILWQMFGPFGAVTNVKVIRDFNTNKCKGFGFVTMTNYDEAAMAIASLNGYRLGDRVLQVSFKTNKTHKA
UniProt Q15025: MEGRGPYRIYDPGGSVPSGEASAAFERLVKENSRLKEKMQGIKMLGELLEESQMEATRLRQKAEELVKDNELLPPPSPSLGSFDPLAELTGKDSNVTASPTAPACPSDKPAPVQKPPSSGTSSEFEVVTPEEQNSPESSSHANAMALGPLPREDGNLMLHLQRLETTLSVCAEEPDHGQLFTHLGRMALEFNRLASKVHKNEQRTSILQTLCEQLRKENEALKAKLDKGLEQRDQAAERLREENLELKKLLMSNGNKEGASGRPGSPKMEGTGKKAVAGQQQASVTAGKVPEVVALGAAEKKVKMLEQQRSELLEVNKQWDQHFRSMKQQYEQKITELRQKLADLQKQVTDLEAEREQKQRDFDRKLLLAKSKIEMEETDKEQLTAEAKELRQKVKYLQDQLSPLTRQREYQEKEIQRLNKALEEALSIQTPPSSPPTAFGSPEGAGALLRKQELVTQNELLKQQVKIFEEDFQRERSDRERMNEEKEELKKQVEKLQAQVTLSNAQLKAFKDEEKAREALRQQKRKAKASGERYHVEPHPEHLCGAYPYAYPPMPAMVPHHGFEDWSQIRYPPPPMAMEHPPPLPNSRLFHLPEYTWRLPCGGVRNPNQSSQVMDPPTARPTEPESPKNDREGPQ
UniProt P49247: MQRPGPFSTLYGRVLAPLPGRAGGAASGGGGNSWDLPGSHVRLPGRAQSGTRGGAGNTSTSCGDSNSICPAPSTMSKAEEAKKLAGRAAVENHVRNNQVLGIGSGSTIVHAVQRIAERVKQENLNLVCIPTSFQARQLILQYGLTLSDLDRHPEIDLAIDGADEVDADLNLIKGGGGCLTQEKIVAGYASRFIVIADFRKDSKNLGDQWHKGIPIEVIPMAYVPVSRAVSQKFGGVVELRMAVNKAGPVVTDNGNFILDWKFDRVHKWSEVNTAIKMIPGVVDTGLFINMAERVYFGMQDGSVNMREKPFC
UniProt Q5JVS0: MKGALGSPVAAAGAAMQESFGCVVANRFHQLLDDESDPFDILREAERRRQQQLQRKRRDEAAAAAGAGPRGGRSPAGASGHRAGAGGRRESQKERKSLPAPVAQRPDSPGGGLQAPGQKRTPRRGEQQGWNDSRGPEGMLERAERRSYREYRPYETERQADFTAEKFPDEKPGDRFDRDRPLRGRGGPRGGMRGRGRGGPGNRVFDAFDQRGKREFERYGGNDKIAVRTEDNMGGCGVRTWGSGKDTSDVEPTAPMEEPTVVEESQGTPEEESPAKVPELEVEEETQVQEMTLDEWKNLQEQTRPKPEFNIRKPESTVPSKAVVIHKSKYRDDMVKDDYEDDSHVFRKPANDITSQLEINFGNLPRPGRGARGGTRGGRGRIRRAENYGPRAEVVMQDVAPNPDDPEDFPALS
UniProt O60512: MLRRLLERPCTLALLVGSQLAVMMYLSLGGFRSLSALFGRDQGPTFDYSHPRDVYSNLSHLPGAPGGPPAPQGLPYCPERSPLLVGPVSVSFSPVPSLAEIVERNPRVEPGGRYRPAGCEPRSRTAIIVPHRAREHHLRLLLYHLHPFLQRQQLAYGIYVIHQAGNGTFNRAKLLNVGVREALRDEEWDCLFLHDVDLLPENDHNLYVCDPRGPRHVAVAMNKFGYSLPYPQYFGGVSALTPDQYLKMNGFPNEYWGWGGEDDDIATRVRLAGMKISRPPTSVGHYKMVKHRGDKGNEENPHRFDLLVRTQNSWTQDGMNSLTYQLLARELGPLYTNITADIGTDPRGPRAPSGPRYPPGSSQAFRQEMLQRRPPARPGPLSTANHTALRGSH
UniProt P43487, whole entry: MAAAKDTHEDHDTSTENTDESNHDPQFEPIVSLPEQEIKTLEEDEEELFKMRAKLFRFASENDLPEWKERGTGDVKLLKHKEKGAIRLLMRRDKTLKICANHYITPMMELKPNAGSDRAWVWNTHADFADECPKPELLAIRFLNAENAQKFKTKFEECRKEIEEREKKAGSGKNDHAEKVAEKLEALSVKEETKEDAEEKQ
UniProt Q05932: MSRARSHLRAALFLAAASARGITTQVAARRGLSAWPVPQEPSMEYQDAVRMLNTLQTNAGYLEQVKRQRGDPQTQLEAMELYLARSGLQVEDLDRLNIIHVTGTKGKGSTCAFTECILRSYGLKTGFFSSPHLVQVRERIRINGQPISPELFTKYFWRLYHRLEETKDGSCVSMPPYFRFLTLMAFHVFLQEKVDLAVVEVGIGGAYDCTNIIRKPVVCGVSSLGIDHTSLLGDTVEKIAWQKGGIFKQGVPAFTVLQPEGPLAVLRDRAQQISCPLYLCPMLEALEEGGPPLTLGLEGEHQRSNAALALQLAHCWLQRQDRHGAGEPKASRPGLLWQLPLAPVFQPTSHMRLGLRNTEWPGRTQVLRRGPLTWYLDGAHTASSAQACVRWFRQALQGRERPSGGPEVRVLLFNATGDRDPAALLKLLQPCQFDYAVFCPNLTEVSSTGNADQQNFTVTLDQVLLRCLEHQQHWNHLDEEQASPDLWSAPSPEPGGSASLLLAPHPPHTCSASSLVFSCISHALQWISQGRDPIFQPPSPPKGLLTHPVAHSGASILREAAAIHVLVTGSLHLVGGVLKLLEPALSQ
UniProt P38571: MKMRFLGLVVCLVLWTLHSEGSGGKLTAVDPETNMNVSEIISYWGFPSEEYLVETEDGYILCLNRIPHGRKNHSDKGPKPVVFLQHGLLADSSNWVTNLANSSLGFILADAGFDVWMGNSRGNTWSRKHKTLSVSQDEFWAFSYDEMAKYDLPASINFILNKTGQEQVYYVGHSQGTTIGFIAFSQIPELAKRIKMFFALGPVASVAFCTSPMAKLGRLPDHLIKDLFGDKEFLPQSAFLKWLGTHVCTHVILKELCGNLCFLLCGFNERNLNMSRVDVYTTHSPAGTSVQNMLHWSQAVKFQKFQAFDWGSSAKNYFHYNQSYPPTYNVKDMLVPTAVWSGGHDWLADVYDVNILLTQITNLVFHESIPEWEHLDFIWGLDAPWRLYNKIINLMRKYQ
UniProt Q9Y3Y2: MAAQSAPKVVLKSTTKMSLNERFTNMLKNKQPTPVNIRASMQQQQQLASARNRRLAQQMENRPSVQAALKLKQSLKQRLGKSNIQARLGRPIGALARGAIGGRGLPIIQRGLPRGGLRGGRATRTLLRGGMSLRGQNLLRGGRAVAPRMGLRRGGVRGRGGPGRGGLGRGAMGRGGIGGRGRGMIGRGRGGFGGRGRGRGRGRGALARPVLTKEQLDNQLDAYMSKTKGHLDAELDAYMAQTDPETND
UniProt Q9NZA1: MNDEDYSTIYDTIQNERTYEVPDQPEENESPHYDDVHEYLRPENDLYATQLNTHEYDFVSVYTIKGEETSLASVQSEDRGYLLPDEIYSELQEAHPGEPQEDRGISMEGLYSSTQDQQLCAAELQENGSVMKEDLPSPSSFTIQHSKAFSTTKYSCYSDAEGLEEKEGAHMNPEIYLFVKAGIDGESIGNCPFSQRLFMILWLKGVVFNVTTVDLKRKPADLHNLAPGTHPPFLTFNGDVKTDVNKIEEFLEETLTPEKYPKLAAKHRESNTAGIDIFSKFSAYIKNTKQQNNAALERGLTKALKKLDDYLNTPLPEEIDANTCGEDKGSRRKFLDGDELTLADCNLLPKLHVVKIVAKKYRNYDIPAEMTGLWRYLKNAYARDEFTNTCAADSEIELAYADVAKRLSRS
UniProt Q8WVP5: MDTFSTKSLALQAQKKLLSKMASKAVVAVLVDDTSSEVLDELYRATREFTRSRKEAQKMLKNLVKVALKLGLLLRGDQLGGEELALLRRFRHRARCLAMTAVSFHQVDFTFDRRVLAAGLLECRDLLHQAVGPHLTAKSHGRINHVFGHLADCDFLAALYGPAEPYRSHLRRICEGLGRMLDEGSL
UniProt O14880: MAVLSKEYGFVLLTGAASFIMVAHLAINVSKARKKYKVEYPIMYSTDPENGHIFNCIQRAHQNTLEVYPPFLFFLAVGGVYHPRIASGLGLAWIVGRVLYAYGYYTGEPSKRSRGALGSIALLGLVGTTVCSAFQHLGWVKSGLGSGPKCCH
UniProt Q04695: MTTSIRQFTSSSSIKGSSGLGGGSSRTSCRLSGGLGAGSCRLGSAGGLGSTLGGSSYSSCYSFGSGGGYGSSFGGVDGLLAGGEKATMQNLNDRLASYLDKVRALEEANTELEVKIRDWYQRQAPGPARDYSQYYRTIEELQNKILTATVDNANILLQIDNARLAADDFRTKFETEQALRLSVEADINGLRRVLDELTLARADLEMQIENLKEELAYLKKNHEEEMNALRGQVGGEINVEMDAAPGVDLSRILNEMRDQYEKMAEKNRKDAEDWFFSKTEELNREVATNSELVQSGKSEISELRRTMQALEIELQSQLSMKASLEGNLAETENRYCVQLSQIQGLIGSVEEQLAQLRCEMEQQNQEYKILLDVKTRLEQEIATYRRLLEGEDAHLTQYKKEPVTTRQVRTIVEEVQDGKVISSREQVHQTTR
UniProt P62380: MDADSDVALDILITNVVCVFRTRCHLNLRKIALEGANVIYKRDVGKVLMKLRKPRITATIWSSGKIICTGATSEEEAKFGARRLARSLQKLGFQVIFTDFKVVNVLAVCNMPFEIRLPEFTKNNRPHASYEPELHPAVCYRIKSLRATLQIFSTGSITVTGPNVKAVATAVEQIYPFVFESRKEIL

[1] = system: intact DAOY cells, treatment time: 90 min, 37 °C
[2] = system: DAOY cell lysate, treatment time: 20 min, 4 °C

| Target | melting temperature shift [1] | melting temperature shift [2] |
| --- | --- | --- |
| UniProt P05412 | -0.194 °C |  |
| UniProt P16455 | -0.596 °C | -0.135 °C |
| PARP9 (UniProt Q8IXQ6) |  | -1.83 °C |
| CAMK2B (UniProt Q13554) | -0.746 °C |  |
| UniProt Q9H853 | -0.609 °C |  |
| PFAS (UniProt O15067) | 0.664 °C | -0.159 °C |
| RBFOX2 (UniProt O43251) | -0.701 °C | -0.0281 °C |
| ELAVL2 (UniProt Q12926) | -1.34 °C |  |
| TNIP1 (UniProt Q15025) | -0.465 °C | -0.578 °C |
| CHAF1A (UniProt Q13111) | -0.129 °C | 0.732 °C |
| RPIA (UniProt P49247) |  | 0.922 °C |
| NELFB (UniProt Q8WX92) | -0.896 °C | -0.0813 °C |
| USP14 (UniProt P54578) | 0.186 °C | -0.347 °C |
| DDX20 (UniProt Q9UHI6) | -0.672 °C | -0.448 °C |
| CCDC47 (UniProt Q96A33) | -0.785 °C | 1.29 °C |
| HABP4 (UniProt Q5JVS0) |  | -0.134 °C |
| RPL3 (UniProt P39023) | -0.498 °C | 0.0412 °C |
| UniProt P78382 | 2.51 °C |  |
| UniProt O60512 | 0.595 °C |  |
| ZNF598 (UniProt Q86UK7) | 1.23 °C | 0.66 °C |
| IPO11 (UniProt Q9UI26) | 0.107 °C | 0.676 °C |
| RANBP1 (UniProt P43487) | 0.00222 °C | -2.41 °C |
| RBM7 (UniProt Q9Y580) | -1.02 °C | -1.22 °C |
| FPGS (UniProt Q05932) |  | 3.09 °C |
| LIPA (UniProt P38571) | 0.871 °C | 0.499 °C |

| Target | melting temperature shift [1] | melting temperature shift [2] |
| --- | --- | --- |
| CHTOP (UniProt Q9Y3Y2) | 0.314 °C | 1.3 °C |
| UniProt Q15773 | 0.703 °C | 1 °C |
| PDCL (UniProt Q13371) | 0.192 °C | -0.563 °C |
| UniProt Q6NWY9 | -1.1 °C |  |
| UniProt P48230 | -0.529 °C |  |
| DDRGK1 (UniProt Q96HY6) | 0.83 °C | 1.99 °C |
| SBDS (UniProt Q9Y3A5) | -0.102 °C | -0.466 °C |
| CXADR (UniProt P78310) |  | -3.36 °C |
| UniProt Q9NZA1 | -0.397 °C |  |
| UniProt Q8WVP5 | -3.14 °C |  |
| MGST3 (UniProt O14880) | 6.52 °C | 2.62 °C |
| RYBP (UniProt Q8N488) |  | 1.4 °C |
| DIDO1 (UniProt Q9BTC0) | -1.19 °C | 0.0377 °C |
| GOLGA1 (UniProt Q92805) | -2.59 °C | -0.0838 °C |
| UniProt Q04695 | 13.8 °C |  |
| PHKB (UniProt Q93100) |  | -0.997 °C |
| UniProt Q02750 | -1.19 °C | -0.189 °C |
| RPS12 (UniProt P25398) | -1.19 °C | 0.276 °C |
| VPS52 (UniProt Q8N1B4) | -0.388 °C | -0.248 °C |
| UniProt P50443 | 0.248 °C | 1.29 °C |
| UBXN8 (UniProt O00124) | -1.64 °C |  |
| UniProt P62380 |  | -0.792 °C |
| PSAT1 (UniProt Q9Y617) | 0.416 °C | -0.855 °C |
| EIF3L (UniProt Q9Y262) | -0.0197 °C | 0.00923 °C |
| UniProt Q9H9S3 | -1.31 °C |  |

Individual results from the results shown:
melting temperature shift [1], UniProt Q04695 is entered as 13.8 °C
melting temperature shift [2], PDCL (UniProt Q13371) is entered as -0.563 °C

From the supplement of paper PMC10060354, “Discovery of a small molecule ligand of FRS2 that inhibits invasion and tumor growth” (Cellular Oncology, 2022)
